Results are given in words; binding and its absence hold for the method and conditions named. Binding seen in cells or lysates may run through a third protein. Some results given as binding are weak or reduced against the parent protein; the word gives no strength.
Biological target: MIK2-GFP (pMIK2::MIK2-GFP in the mik2-1 mutant) (Arabidopsis thaliana) (UniProt Q8VZG8)
Test: co-IP

The chains behind the UniProt entries cited, without tags or fusion partners. Where a name states a change or a piece, a line headed by the entry shows the natural chain unless it says otherwise. Residues count along the entry.
UniProt Q8VZG8, residues 44-1045: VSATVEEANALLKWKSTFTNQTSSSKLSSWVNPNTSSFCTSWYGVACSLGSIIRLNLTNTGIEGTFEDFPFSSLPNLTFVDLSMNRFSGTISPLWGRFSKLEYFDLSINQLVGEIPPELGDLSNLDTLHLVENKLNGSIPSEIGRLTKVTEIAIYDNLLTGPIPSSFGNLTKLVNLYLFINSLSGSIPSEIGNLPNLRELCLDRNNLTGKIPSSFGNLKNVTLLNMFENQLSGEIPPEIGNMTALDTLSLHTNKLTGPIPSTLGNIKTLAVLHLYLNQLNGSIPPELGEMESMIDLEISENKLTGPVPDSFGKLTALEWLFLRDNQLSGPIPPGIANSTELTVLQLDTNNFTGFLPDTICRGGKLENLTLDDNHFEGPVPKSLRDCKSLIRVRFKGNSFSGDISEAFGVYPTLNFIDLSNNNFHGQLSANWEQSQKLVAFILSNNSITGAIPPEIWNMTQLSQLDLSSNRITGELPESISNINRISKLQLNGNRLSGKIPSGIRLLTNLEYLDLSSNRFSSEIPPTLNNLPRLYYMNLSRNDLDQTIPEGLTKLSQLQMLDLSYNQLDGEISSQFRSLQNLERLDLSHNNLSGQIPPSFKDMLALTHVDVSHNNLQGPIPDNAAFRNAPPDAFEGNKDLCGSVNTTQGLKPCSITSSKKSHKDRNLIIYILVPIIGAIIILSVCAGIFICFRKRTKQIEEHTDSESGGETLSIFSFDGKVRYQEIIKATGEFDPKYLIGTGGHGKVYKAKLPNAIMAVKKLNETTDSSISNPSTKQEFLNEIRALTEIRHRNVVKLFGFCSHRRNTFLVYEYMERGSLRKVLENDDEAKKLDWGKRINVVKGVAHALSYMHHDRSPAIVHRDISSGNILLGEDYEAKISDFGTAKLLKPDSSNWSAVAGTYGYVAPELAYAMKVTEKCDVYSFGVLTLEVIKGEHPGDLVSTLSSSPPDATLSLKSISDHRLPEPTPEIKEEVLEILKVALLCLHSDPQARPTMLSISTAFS

B1: BAK1/SERK3, endogenous (BRI1-ASSOCIATED RECEPTOR KINASE 1 / SOMATIC EMBRYOGENESIS RECEPTOR KINASE 3) (receptor, UniProt Q94F62 26-615)
chain: NAEGDALSALKNSLADPNKVLQSWDATLVTPCTWFHVTCNSDNSVTRVDLGNANLSGQLVMQLGQLPNLQYLELYSNNITGTIPEQLGNLTELVSLDLYLNNLSGPIPSTLGRLKKLRFLRLNNNSLSGEIPRSLTAVLTLQVLDLSNNPLTGDIPVNGSFSLFTPISFANTKLTPLPASPPPPISPTPPSPAGSNRITGAIAGGVAAGAALLFAVPAIALAWWRRKKPQDHFFDVPAEEDPEVHLGQLKRFSLRELQVASDNFSNKNILGRGGFGKVYKGRLADGTLVAVKRLKEERTQGGELQFQTEVEMISMAVHRNLLRLRGFCMTPTERLLVYPYMANGSVASCLRERPESQPPLDWPKRQRIALGSARGLAYLHDHCDPKIIHRDVKAANILLDEEFEAVVGDFGLAKLMDYKDTHVTTAVRGTIGHIAPEYLSTGKSSEKTDVFGYGVMLLELITGQRAFDLARLANDDDVMLLDWVKGLLKEKKLEALVDVDLQGNYKDEEVEQLIQVALLCTQSSPMERPKMSEVVRMLEGDGLAERWEEWQKEEMFRQDFNYPTHHPAVSGWIIGDSTSQIENEYPSGPR
  binding: binds weakly

Reference: paper doi:10.1101/2021.01.28.428652
